# Structures can show the parent of a compound that is named as a salt. ± gives the standard deviation of the averaged measurements. The list shows a part of the results. Repeats in this data set agree poorly, so a single value says little.
# System: A549
# Assay: surface PD-L1 immunofluorescence intensity relative to IFN-gamma-only control (ratio); higher = more PD-L1 expression
# Conditions: 10 µM; exposure time 24 h; IFN-gamma 100 ng/mL
row,Structure (SMILES),surface PD-L1 immunofluorescence intensity
1,COC(=O)Nc1ccc2[nH]cc(CCNC(C)=O)c2c1,0.983
2,CC(=O)N[C@@H](CSCC=C(C)CCC=C(C)CCC=C(C)C)C(=O)O [Acetyl-S-farnesyl-L-cysteine],1.02
3,CC1=C(/C=C/C(C)=C\C=C\C(C)=C\C(=O)O)C(C)(C)CCC1 [9-cis Retinoic acid],0.955
4,CC[C@@H](CO)NCCN[C@@H](CC)CO [Ethambutol dihydrochloride],0.86
5,CC[C@@H](CO)NCCN[C@@H](CC)CO [Ethambutol HCl],0.898
6,CC(CN(C)C)C(C)(O)Cc1ccc(Cl)cc1 (centres undefined) [Clobutinol hydrochloride],0.996
7,C[C@]1(Cn2ccnn2)[C@H](C(=O)O)N2C(=O)C[C@H]2S1(=O)=O [Tazobactam],0.986 ± 0.11
8,CC(=O)OCC(=O)[C@@]1(OC(C)=O)[C@@H](C)C[C@H]2[C@@H]3C[C@H](F)C4=CC(=O)C=C[C@]4(C)[C@@]3(F)[C@@H](O)C[C@@]21C [Diflorasone Diacetate],0.893
9,O=C(NCCN1CCCCC1)c1ccc(I)cc1 [N-[2-(Piperidinylamino)ethyl]-4-iodobenzamide],1.14
10,CC1=C(/C=C/C(=C/C=C/C(C)=C/C(=O)O)c2ccc(C)cc2)C(C)(C)CCC1,1.03
11,COc1ccccc1OCC(O)COC(N)=O (centres undefined) [Methocarbamol],0.989
12,Nc1ccn([C@@H]2CS[C@H](CO)O2)c(=O)n1 [Lamivudine],1.01
13,NC1CCN(c2nc3c(cc2F)c(=O)c(C(=O)O)cn3-c2ccc(F)cc2F)C1 (centres undefined) [Tosufloxacin hydrochloride],0.986
14,CCC(=O)Nc1cccc(Oc2nc(Nc3ccc(N4CCN(C)CC4)cc3OC)ncc2Cl)c1,0.942
15,Cn1ccc2cc3c(cc21)CCN3C(=O)Nc1cccnc1,0.973
16,O=C(/C=C/c1c(C(=O)O)[nH]c2cc(Cl)cc(Cl)c12)Nc1ccccc1 [Gavestinel],0.955
17,Clc1cccc2c1CN(C1=NCCN1)C2,1.07
18,O=C(C[S+]([O-])Cc1ccco1)NC/C=C\COc1cc(CN2CCCCC2)ccn1 (centres undefined) [Lafutidine],1.13
19,O=[N+]([O-])c1cccc2c[nH]nc12,0.939
20,COc1c(N2CCNC(C)C2)c(F)cc2c(=O)c(C(=O)O)cn(C3CC3)c12 (centres undefined) [Gatifloxacin],1.1

# Shown bar-delimited: entries from further up
row | Structure (SMILES) | surface PD-L1 immunofluorescence intensity
7 | C[C@]1(Cn2ccnn2)[C@H](C(=O)O)N2C(=O)C[C@H]2S1(=O)=O [Tazobactam] | 0.986 ± 0.11
8 | CC(=O)OCC(=O)[C@@]1(OC(C)=O)[C@@H](C)C[C@H]2[C@@H]3C[C@H](F)C4=CC(=O)C=C[C@]4(C)[C@@]3(F)[C@@H](O)C[C@@]21C [Diflorasone Diacetate] | 0.893

# (cont.)

row,Structure (SMILES),surface PD-L1 immunofluorescence intensity
1,O=C(c1ccccc1)c1ccc2n1CCC2C(=O)O (centres undefined) [Ketorolac tromethamine],0.987
2,CCOC(=O)[C@@](C)(N)Cc1ccc(O)c(O)c1 [Methyldopate hydrochloride],0.999
3,CCN(CC)CCCC(C)Nc1nc(C)cc(Nc2ccc3nc(C)cc(N)c3c2)n1 (centres undefined),1.03 ± 0.059
4,O=C(Nc1ccccc1Br)N[C@@H]1CCN(c2ccc(C(F)(F)F)cn2)C1,0.987
5,COc1ccc(S(=O)(=O)N(CCO)c2ccccc2CN(C)C/C=C/c2ccc(Cl)cc2)cc1 [KN-93 Phosphate],1.03
6,CN(CC[C@@H](Oc1ccc(-c2ccccc2)cc1)c1ccc(F)cc1)CC(=O)O [ALX 5407 hydrochloride],0.962
7,CN(C)CC(c1ccc(O)cc1)C1(O)CCCCC1 (centres undefined) [Desvenlafaxine Succinate],1.01
8,O=C(NOCC(O)CO)c1cc(Br)c(F)c(F)c1Nc1ccc(I)cc1F (centres undefined),1
9,"c1ccc(CNc2ncnc3nc[nH]c23)cc1 [Aminopurine, 6-benzyl]",0.908
10,O=C(Nc1ccccc1)Nc1ccc(-c2ccc(C(=O)[C@@H]3CCC[C@H]3C(=O)O)cc2)cc1,1.03
11,OC[C@@H](O)[C@@H](O)[C@@H](O)CO [Ribitol (Adonitol)],1.04
12,CCN[C@@H]1C[C@H](N)[C@@H](O[C@H]2OC(CN)=CC[C@H]2N)[C@H](O)[C@H]1O[C@H]1OC[C@](C)(O)[C@H](NC)[C@H]1O [Netilmicin Sulfate],0.959
13,O=C1NC(=O)C(=Cc2ccc(-c3ccc(F)cc3)o2)S1 (stereo in doubt),0.983 ± 0.027
14,O=C1NC(=O)C(c2ccccc2)(c2ccccc2)N1 [Phenytoin],0.866
15,CC(C)(O)c1ccccc1CC[C@@H](SCC1(CC(=O)O)CC1)c1cccc(/C=C/c2ccc3ccc(Cl)cc3n2)c1 [Montelukast],1.05
16,CC(=O)Oc1cc2c(s1)CCN(C(C(=O)C1CC1)c1ccccc1F)C2 (centres undefined) [Prasugrel (Effient)],0.911
17,Cn1cnc([N+](=O)[O-])c1Sc1ncnc2[nH]cnc12 [Azathioprine],0.971
18,"Cn1cnc([N+](=O)[O-])c1Sc1ncnc2[nH]cnc12 [Azathioprine (Azasan, Imuran)]",0.998
19,CC(C)C(=O)Nc1ccc([N+](=O)[O-])c(C(F)(F)F)c1 [Flutamide],0.95

# From the supplement of paper PMC8732350
